In this assay the test system is primary human keratinocytes (PHK). Nature of the assay: Transepithelial electric resistance (TEER) in cultured primary human keratinocytes. Conditions: antagonist with histamine, Cetirizine 10 μM, JNJ7777120 10 μM, Cimetidine 100 μM, n=4, FIGS. 4A, 5A. Format: cell-based. An excerpt:
Selective antagonists were used for each receptor: […] Selective antagonists were used for each receptor: […]

Molecules are shown by their SMILES.

For `O=C(O)COCCN1CCN(C(c2ccccc2)c2ccc(Cl)cc2)CC1` (stereo not shown) [Cetirizine], the “Block of histamine-mediated TEER reduction (AUC)” value is “blocks”.

The values above are taken from patent publication US20160000777A1, “METHODS OF USING HISTAMINE RECEPTOR AGONISTS AND ANTAGONISTS” (UNIVERSITY OF ROCHESTER, priority 2013, published 2016).
